# This is one part of the list. Single values are uncertain, as repeats are few or missing.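 The apoptosis fraction was the count of cleaved-PARP antibody-stained nuclei relative to all DNA-stained nuclei, imaged in 1,536-well plates. Screening doses were set so most cells survived, and baseline and induced cleaved-PARP levels vary greatly across cell lines.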
# What was measured:
# Assay in all cases: cleaved PARP positive nuclei fraction relative to DMSO control; melanoma cells; higher = more apoptosis
# Conditions in all cases: library dose: low library concentration; 72 h
# WM115 = tested on: WM115
# WM1716 = tested on: WM1716
# WM1745 = tested on: WM1745
# WM3526 = tested on: WM3526
# WM3619 = tested on: WM3619
# WM451Lu = tested on: WM451Lu
SMILES,cleaved PARP positive nuclei fraction (WM115) [%],cleaved PARP positive nuclei fraction (WM1716) [%],cleaved PARP positive nuclei fraction (WM1745) [%],cleaved PARP positive nuclei fraction (WM3526) [%],cleaved PARP positive nuclei fraction (WM3619) [%],cleaved PARP positive nuclei fraction (WM451Lu) [%]
"C[C@]12O[C@H](C[C@]1(O)CO)n1c3ccccc3c3c4c(c5c6ccccc6n2c5c31)CNC4=O [Lestaurtinib] + CC(C)C[C@H](NC(=O)[C@H](Cc1ccccc1)NC(=O)c1cnccn1)B(O)O [Bortezomib] (first compound 0.004 µM, partner dose 0.001 µM)",175,175,207,57,162,148
"Cn1cnc2c(F)c(Nc3ccc(Br)cc3Cl)c(C(=O)NOCCO)cc21 [selumetinib] + Cc1cc(SCc2sc(-c3ccc(C(F)(F)F)c(F)c3)nc2C)ccc1OCC(=O)O [GW0742] (first compound 0.015 µM, partner dose 2 µM)",187,139,84.9,91,103,62.7
"N#CC[C@H](C1CCCC1)n1cc(-c2ncnc3[nH]ccc23)cn1 [ruxolitinib] + Cn1cc(C2=C(c3cn(C4CCN(Cc5ccccn5)CC4)c4ccccc34)C(=O)NC2=O)c2ccccc21 [Enzastaurin] (first compound 1 µM, partner dose 0.8 µM)",29.7,81.1,104,29.8,160,43
"CN(c1ncccc1CNc1nc(Nc2ccc3c(c2)CC(=O)N3)ncc1C(F)(F)F)S(C)(=O)=O + C/C(O)=C(\C#N)C(=O)Nc1cc(Br)ccc1Br [LFM-A13] (first compound 0.08 µM, partner dose 2 µM)",82.3,164,96.1,167,122,93.7
"C[C@@H](N)c1ccc(C(=O)Nc2ccnc3[nH]ccc23)cc1 + N.N.[Cl][Pt][Cl] [cisplatin] (first compound 0.4 µM, partner dose 1.6 µM)",41.9,90,111,47.3,96.3,184
"CC(C)C[C@H](NC(=O)[C@H](Cc1ccccc1)NC(=O)c1cnccn1)B(O)O [Bortezomib] + Cc1cc(SCc2sc(-c3ccc(C(F)(F)F)c(F)c3)nc2C)ccc1OCC(=O)O [GW0742] (first compound 0.001 µM, partner dose 2 µM)",59.3,758,109,326,477,72.9
"CC(C)C[C@H](NC(=O)[C@H](Cc1ccccc1)NC(=O)c1cnccn1)B(O)O [Bortezomib] + O=C(Oc1ccc([N+](=O)[O-])cc1)N1CCC(C(O)(c2ccc3c(c2)OCO3)c2ccc3c(c2)OCO3)CC1 [JZL184] (first compound 0.001 µM, partner dose 1 µM)",138,524,437,114,3360,89.2
"CN(C)S(=O)(=O)c1ccc2c(c1)/C(=C/c1cc3c([nH]1)CCCC3)C(=O)N2 + C/C(O)=C(\C#N)C(=O)Nc1cc(Br)ccc1Br [LFM-A13] (first compound 0.4 µM, partner dose 2 µM)",38.1,103,135,74.9,91.1,149
"C[As](C)SC[C@H](NC(=O)CC[C@H](N)C(=O)O)C(=O)NCC(=O)O [Darinaparsin] + C=CCn1c(=O)c2cnc(Nc3ccc(N4CCN(C)CC4)cc3)nc2n1-c1cccc(C(C)(C)O)n1 [MK1775] (first compound 0.4 µM, partner dose 0.02 µM)",247,243,105,145,188,152
"C[C@]12O[C@H](C[C@]1(O)CO)n1c3ccccc3c3c4c(c5c6ccccc6n2c5c31)CNC4=O [Lestaurtinib] + Nc1ccn([C@@H]2O[C@H](CO)[C@@H](O)C2(F)F)c(=O)n1 [gemcitabine] (first compound 0.004 µM, partner dose 0.0004 µM)",122,263,146,87.2,137,78.5
"C[C@]12O[C@H](C[C@]1(O)CO)n1c3ccccc3c3c4c(c5c6ccccc6n2c5c31)CNC4=O [Lestaurtinib] + N#Cc1c(O)c2c(-c3ccc(-c4ccccc4O)cc3)csc2[nH]c1=O [A769662] (first compound 0.004 µM, partner dose 2 µM)",97.8,52.2,104,86.8,105,54.6
"CC(C)(C)c1cnc(CSc2cnc(NC(=O)C3CCNCC3)s2)o1 + Cc1cc(SCc2sc(-c3ccc(C(F)(F)F)c(F)c3)nc2C)ccc1OCC(=O)O [GW0742] (first compound 0.01 µM, partner dose 2 µM)",71.2,61.7,214,22.4,69.3,64.4
"Cn1cc(C2=C(c3cn(C4CCN(Cc5ccccn5)CC4)c4ccccc34)C(=O)NC2=O)c2ccccc21 [Enzastaurin] + CO[C@@H]1[C@H](N(C)C(=O)c2ccccc2)C[C@H]2O[C@]1(C)n1c3ccccc3c3c4c(c5c6ccccc6n2c5c31)C(=O)NC4 [Midostaurin] (first compound 0.8 µM, partner dose 0.08 µM)",94.2,175,124,42.4,79,50.6
"C/C(O)=C(\C#N)C(=O)Nc1cc(Br)ccc1Br + O=c1cc(-c2cccc3c2Sc2ccccc2S3)oc(N2CCOCC2)c1 [KU55933] (first compound 2 µM, partner dose 1 µM)",70.5,93.4,235,79.2,70.3,120
"CC(=O)O[C@@]12CO[C@@H]1C[C@H](O)[C@@]1(C)C(=O)[C@H](O)C3=C(C)[C@@H](OC(=O)[C@H](O)[C@@H](NC(=O)OC(C)(C)C)c4ccccc4)C[C@@](O)([C@@H](OC(=O)c4ccccc4)[C@H]21)C3(C)C [Docetaxel] + N.N.[Cl][Pt][Cl] [cisplatin] (first compound 0.0001 µM, partner dose 1.6 µM)",381,227,151,134,110,63.9
"C[As](C)SC[C@H](NC(=O)CC[C@H](N)C(=O)O)C(=O)NCC(=O)O [Darinaparsin] + COc1ccc(-c2ccc3c(N4CCOCC4)nc(N4C[C@@H](C)O[C@@H](C)C4)nc3n2)cc1CO [KU0063794] (first compound 0.4 µM, partner dose 0.02 µM)",61,116,107,78.2,94.2,92.5
"COc1cc([C@@H]2c3cc4c(cc3[C@@H](O[C@@H]3O[C@@H]5CO[C@@H](C)O[C@H]5[C@H](O)[C@H]3O)[C@H]3COC(=O)[C@H]23)OCO4)cc(OC)c1O [etoposide] + Cc1cc(SCc2sc(-c3ccc(C(F)(F)F)c(F)c3)nc2C)ccc1OCC(=O)O [GW0742] (first compound 0.02 µM, partner dose 2 µM)",83.7,,95.7,130,,117
"COc1cc2c(Oc3ccc4[nH]c(C)cc4c3F)ncnc2cc1OCCCN1CCCC1 [cediranib] + Cc1cc(SCc2sc(-c3ccc(C(F)(F)F)c(F)c3)nc2C)ccc1OCC(=O)O [GW0742] (first compound 0.4 µM, partner dose 2 µM)",131,72,236,58,81.7,124
"C[C@]1(O)C[C@@H](c2nc(-c3ccc4ccc(-c5ccccc5)nc4c3)c3c(N)nccn32)C1 + O=C(Oc1ccc([N+](=O)[O-])cc1)N1CCC(C(O)(c2ccc3c(c2)OCO3)c2ccc3c(c2)OCO3)CC1 [JZL184] (first compound 0.4 µM, partner dose 1 µM)",119,43.4,112,86.6,97.8,40.2
"C[As](C)SC[C@H](NC(=O)CC[C@H](N)C(=O)O)C(=O)NCC(=O)O [Darinaparsin] + CCCCCCCCCCCC1=C(O)C(=O)C=C(O)C1=O [Embelin] (first compound 0.4 µM, partner dose 1.2 µM)",74,50,103,67.4,82.2,26.4
"Cn1cc(C2=C(c3cn(C4CCN(Cc5ccccn5)CC4)c4ccccc34)C(=O)NC2=O)c2ccccc21 [Enzastaurin] + C=C(c1ccc(C(=O)O)cc1)c1cc2c(cc1C)C(C)(C)CCC2(C)C [Bexarotene] (first compound 0.8 µM, partner dose 2 µM)",73.6,382,109,76.3,110,127
"C=C(c1ccc(C(=O)O)cc1)c1cc2c(cc1C)C(C)(C)CCC2(C)C [Bexarotene] + C/C(O)=C(\C#N)C(=O)Nc1cc(Br)ccc1Br [LFM-A13] (first compound 2 µM, partner dose 2 µM)",139,128,92.9,109,105,125
"CC(=O)O[C@@]12CO[C@@H]1C[C@H](O)[C@@]1(C)C(=O)[C@H](O)C3=C(C)[C@@H](OC(=O)[C@H](O)[C@@H](NC(=O)OC(C)(C)C)c4ccccc4)C[C@@](O)([C@@H](OC(=O)c4ccccc4)[C@H]21)C3(C)C [Docetaxel] + Cc1cc(SCc2sc(-c3ccc(C(F)(F)F)c(F)c3)nc2C)ccc1OCC(=O)O [GW0742] (first compound 0.0001 µM, partner dose 2 µM)",340,274,149,162,178,73.6
"O=C(O)c1ccc(-c2c[nH]c3ncc(-c4ccccc4)cc23)cc1C1CCCC1 + C/C(O)=C(\C#N)C(=O)Nc1cc(Br)ccc1Br [LFM-A13] (first compound 0.16 µM, partner dose 2 µM)",98.7,69.1,102,59.8,88.7,121
"NC(=O)c1ccc(N(C(N)=O)c2c(F)cccc2F)nc1-c1ccc(F)cc1F + Cc1cc(SCc2sc(-c3ccc(C(F)(F)F)c(F)c3)nc2C)ccc1OCC(=O)O [GW0742] (first compound 0.4 µM, partner dose 2 µM)",270,93.1,81.5,67.5,94.1,62.8

# In another format: entries from further up
SMILES	cleaved PARP positive nuclei fraction (WM115) [%]	cleaved PARP positive nuclei fraction (WM1716) [%]	cleaved PARP positive nuclei fraction (WM1745) [%]	cleaved PARP positive nuclei fraction (WM3526) [%]	cleaved PARP positive nuclei fraction (WM3619) [%]	cleaved PARP positive nuclei fraction (WM451Lu) [%]
N#CC[C@H](C1CCCC1)n1cc(-c2ncnc3[nH]ccc23)cn1 [ruxolitinib] + Cn1cc(C2=C(c3cn(C4CCN(Cc5ccccn5)CC4)c4ccccc34)C(=O)NC2=O)c2ccccc21 [Enzastaurin] (first compound 1 µM, partner dose 0.8 µM)	29.7	81.1	104	29.8	160	43
CC(=O)O[C@@]12CO[C@@H]1C[C@H](O)[C@@]1(C)C(=O)[C@H](O)C3=C(C)[C@@H](OC(=O)[C@H](O)[C@@H](NC(=O)OC(C)(C)C)c4ccccc4)C[C@@](O)([C@@H](OC(=O)c4ccccc4)[C@H]21)C3(C)C [Docetaxel] + N.N.[Cl][Pt][Cl] [cisplatin] (first compound 0.0001 µM, partner dose 1.6 µM)	381	227	151	134	110	63.9
COc1cc2c(Oc3ccc4[nH]c(C)cc4c3F)ncnc2cc1OCCCN1CCCC1 [cediranib] + Cc1cc(SCc2sc(-c3ccc(C(F)(F)F)c(F)c3)nc2C)ccc1OCC(=O)O [GW0742] (first compound 0.4 µM, partner dose 2 µM)	131	72	236	58	81.7	124
C[C@]1(O)C[C@@H](c2nc(-c3ccc4ccc(-c5ccccc5)nc4c3)c3c(N)nccn32)C1 + O=C(Oc1ccc([N+](=O)[O-])cc1)N1CCC(C(O)(c2ccc3c(c2)OCO3)c2ccc3c(c2)OCO3)CC1 [JZL184] (first compound 0.4 µM, partner dose 1 µM)	119	43.4	112	86.6	97.8	40.2
C[As](C)SC[C@H](NC(=O)CC[C@H](N)C(=O)O)C(=O)NCC(=O)O [Darinaparsin] + CCCCCCCCCCCC1=C(O)C(=O)C=C(O)C1=O [Embelin] (first compound 0.4 µM, partner dose 1.2 µM)	74	50	103	67.4	82.2	26.4
C=C(c1ccc(C(=O)O)cc1)c1cc2c(cc1C)C(C)(C)CCC2(C)C [Bexarotene] + C/C(O)=C(\C#N)C(=O)Nc1cc(Br)ccc1Br [LFM-A13] (first compound 2 µM, partner dose 2 µM)	139	128	92.9	109	105	125
NC(=O)c1ccc(N(C(N)=O)c2c(F)cccc2F)nc1-c1ccc(F)cc1F + Cc1cc(SCc2sc(-c3ccc(C(F)(F)F)c(F)c3)nc2C)ccc1OCC(=O)O [GW0742] (first compound 0.4 µM, partner dose 2 µM)	270	93.1	81.5	67.5	94.1	62.8

# Source: the supplement of paper PMC4604168 (melanoma cell lines)
